Results on one molecule are retold here after BindingDB's records for patent US11547697 (Millennium Pharmaceuticals, 2023).

This experiment deals with Serine/threonine-protein kinase mTOR (Homo sapiens, UniProt P42345). As to the kind of experiment: Inhibition Assays of mTOR.

Take `Nc1nc2cc(-c3ccc4nccc(-c5ccncc5)c4c3)ccc2o1` [US11547697, Compound 1]: the IC50 was under 1000 nM.
